{
  "source": "patent US20110207675A1",
  "binders": {"B1": {"name": "synthetic peptide LSFGSLP (peptide)", "peptide": "LSFGSLP"}},
  "key": {"[1]": {"target": "T1, ETS domain of ERG expressed as HaloTag fusion protein (UniProt P11308)", "T1 sequence (looked up)": "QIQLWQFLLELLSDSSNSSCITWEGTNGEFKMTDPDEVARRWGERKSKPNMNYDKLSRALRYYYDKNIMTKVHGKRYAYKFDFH", "assay": "competition pull-down, GST-AR as competitor (FIG. 30)"}, "[2]": {"target": "T1, ETS domain of ERG expressed as HaloTag fusion protein", "assay": "competition pull-down: Halo-ETS beads, GST-AR as competitor, various peptide concentrations, anti-GST blot"}},
  "note": "No constants are given. Whether binding was seen depends on the method and setting. Binding seen in cells or lysates may run through a third protein. Some entries that bind do so weakly or less than the wild type. Where a sequence is shown, tags or fusion partners need not be part of it.",
  "data": [
    {"binder": "B1", "values": [
      {"measurement": "binding", "setting": "[1]", "value": "binds"},
      {"measurement": "binding", "setting": "[2]", "value": "binds"}
    ]}
  ]
}
